PubChem BioAssay AID652272 – Drosophila RNAi Screening Center – 2013
In all, the deposit lists about 21,000 reagents; this is a random part of those with a known target gene and a result. Of all reagents, 503 (2.4%) are marked active. 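Raw plate light values, not normalised; calls rest on replicate z-scores that were not deposited; hits include reporter decreases as well as increases.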 A number with no mark means an inactive call. Names joined by + are all predicted targets of the reagent. Not given: the amount of reagent, the time to read-out.

Screen: 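Finding fly genes that regulate Hedgehog signal transduction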 (primary screen)
Cells: Drosophila clone 8 (Cl8) cells
Reagents: long dsRNA against Drosophila genes
Measurement: 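Plate reader light from a firefly reporter under a ptc promoter fragment that responds to Hedgehog, with Renilla light as transfection reference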
Direction: firefly Hh reporter signal: higher = more ptc reporter light; Renilla reference signal: higher = more Renilla control light
Call rule: 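Called a hit if the two-replicate mean z-score lies below -2 or above +3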
Calls: active = hit: reporter lowered or raised; inactive = not a hit

no.	gene	DRSC id	firefly Hh reporter signal, replicate 1	firefly Hh reporter signal, replicate 2	firefly Hh reporter signal, replicate 3	Renilla reference signal, replicate 1	Renilla reference signal, replicate 2
1	CG13983	DRSC02315	1.04e5	39607		2905	4157
2	CG8852	DRSC00719	91156	46908		2548	4787
3	Ten-m (Tenascin major)	DRSC11664	1.09e5	1.19e5		3355	3418
4	Ten-m (Tenascin major)	DRSC11882	93971	99417		2633	2869
5	NELF-B	DRSC17734	62400	52451		2387	1680
6	CG10164	DRSC14197	3.80e5	77756		2951	2951
7	CG3407	DRSC00603	66017	82220		3585	3757
8	Mabi (Mabiki)	DRSC02489	2.23e5	89289		5257	7026
9	Gs2 (Glutamine synthetase 2)	DRSC20250	81236	2.53e5		3133	10082
10	Gos28 (Golgi SNARE, 28 kDa)	DRSC16292	8.65e5	2.19e5		45622	5858
11	CG8435	DRSC07179	77788 (active)	42884		5120	3107
12	Vps53 (Vacuolar protein sorting 53)	DRSC00595	83152	86472		3666	3242
13	HmgZ (HMG protein Z)	DRSC03888	1.34e5	2.71e5		1209	14896
14	HmgZ (HMG protein Z)	DRSC04620	98633	50448		2968	6227
15	Ir60a (Ionotropic receptor 60a)	DRSC04212	76720	56816		1882	5047
16	CG10081	DRSC05962	90935	55802		2483	4257
17	CG13051	DRSC09932	1.70e5			6509	4773
18	Txl (Thioredoxin-like)	DRSC11310	39420	46794		5308	3197
19	Acat1 (Acetyl-CoA acetyltransferase 1)	DRSC17766	80875	78331		1910	1992
20	CG6724	DRSC02983	87024	51117		3143	6712
21	CG31639	DRSC00910	6.25e5	2.60e5		32612	11776
22	br (broad)	DRSC17691	4.66e5	2.09e5		24064	4129
23	br (broad)	DRSC17789	72253	1.66e5		3171	8187
24	br (broad)	DRSC18743	74172	1.43e5		2262	6548
25	br (broad)	DRSC18744	43559	64080		1176	3232
26	flfl (falafel)	DRSC16474	1.58e5	1.03e5		5261	3947
27	CG17475	DRSC15238	51707	81009		1450	1752
28	tyn (trynity)	DRSC20652	65849	2.60e5		2327	11664
29	CG10184	DRSC14204	97200	1.11e5		3840	4141
30	PRL-1 (PRL-1 phosphatase)	DRSC03393	1.25e5	1.06e5		3169	7330
31	Myo31DF (Myosin 31DF)	DRSC03376	1.55e5	2.15e5		6166	7543
32	CG2983	DRSC00558	1.69e5	1.13e5		3952	3229
33	CG15093	DRSC06522	1.59e5	1.11e5		7037	4528
34	Fkbp12 (FK506-binding protein 12kD)	DRSC07425	1.13e5	65904		2710	4304
35	Cdk5 (Cyclin-dependent kinase 5)	DRSC07359	1.12e5	79910		4627	3265
36	Nha1 (Na[+]/H[+] hydrogen antiporter 1)	DRSC02109	1.73e5	65827		6432	2596
37	alphaTub84D (alpha-Tubulin at 84D)	DRSC12623	51472	57776		1564	1932
38	CR32733 (pseudo)	DRSC17481	4.33e5	1.43e5		24948	2613

Records listed so far with an active call (1):
gene	DRSC id	firefly Hh reporter signal, replicate 1	firefly Hh reporter signal, replicate 2	firefly Hh reporter signal, replicate 3	Renilla reference signal, replicate 1	Renilla reference signal, replicate 2
CG8435	DRSC07179	77788 (active)	42884		5120	3107

Further results:
no.	gene	DRSC id	firefly Hh reporter signal, replicate 1	firefly Hh reporter signal, replicate 2	firefly Hh reporter signal, replicate 3	Renilla reference signal, replicate 1	Renilla reference signal, replicate 2
39	CG42376 + cin	DRSC18752	76886	65543		1853	2096
40	COX5B (Cytochrome c oxidase subunit 5B)	DRSC02115	1.06e5	73940		2131	6236
41	Gr98d (Gustatory receptor 98d)	DRSC14571	94657	1.12e5		2051	3267
42	CG17328	DRSC01927	1.17e5	7.84e5	93924	2880	43552
43	Usp2 (Ubiquitin specific protease 2)	DRSC20590	4.94e5	1.67e5		30615	4636
44	Usp2 (Ubiquitin specific protease 2)	DRSC20632	1.39e5	1.13e5		2858	2711
45	Usp2 (Ubiquitin specific protease 2)	DRSC20633	57712	1.42e5		1976	8059
46	CG31373	DRSC16052	72418	1.02e5		2288	2870
47	Mal-A1 (Maltase A1)	DRSC07461	78518	48289		1702	3698
48	CG14947	DRSC02429	79181	49542		2032	4795
49	CG5800	DRSC19962	72794	2.15e5		1744	9880
50	CG5892	DRSC15910	4.88e5	1.91e5		23120	3568
51	Acbp5 (Acyl-CoA binding protein 5)	DRSC10548	62064	55284		6121	4152
52	Pex12 (Peroxin 12)	DRSC00622	72904	54512		2112	1712
53	Mical (Molecule interacting with CasL)	DRSC14349	66019	1.16e5		2112	2960
54	Mical (Molecule interacting with CasL)	DRSC14351	1.02e5	1.38e5		2952	4417
55	Mical (Molecule interacting with CasL)	DRSC15365	93029	1.14e5		2599	3165
56	Mical (Molecule interacting with CasL)	DRSC15366	79600	1.17e5		2644	2992
57	LUBEL (Linear Ubiquitin E3 ligase)	DRSC02141	1.26e5	42000		3376	4369
